Test results published in the supplement of paper PMC10849652.
The list shows a part of the results.

Protein sequences, listed by entry. Tags and fused reporters are not part of them. Lines headed by an entry give the natural chain unless they say otherwise; changes in a name come on top.
UniProt Q9NR19, whole entry, looked up: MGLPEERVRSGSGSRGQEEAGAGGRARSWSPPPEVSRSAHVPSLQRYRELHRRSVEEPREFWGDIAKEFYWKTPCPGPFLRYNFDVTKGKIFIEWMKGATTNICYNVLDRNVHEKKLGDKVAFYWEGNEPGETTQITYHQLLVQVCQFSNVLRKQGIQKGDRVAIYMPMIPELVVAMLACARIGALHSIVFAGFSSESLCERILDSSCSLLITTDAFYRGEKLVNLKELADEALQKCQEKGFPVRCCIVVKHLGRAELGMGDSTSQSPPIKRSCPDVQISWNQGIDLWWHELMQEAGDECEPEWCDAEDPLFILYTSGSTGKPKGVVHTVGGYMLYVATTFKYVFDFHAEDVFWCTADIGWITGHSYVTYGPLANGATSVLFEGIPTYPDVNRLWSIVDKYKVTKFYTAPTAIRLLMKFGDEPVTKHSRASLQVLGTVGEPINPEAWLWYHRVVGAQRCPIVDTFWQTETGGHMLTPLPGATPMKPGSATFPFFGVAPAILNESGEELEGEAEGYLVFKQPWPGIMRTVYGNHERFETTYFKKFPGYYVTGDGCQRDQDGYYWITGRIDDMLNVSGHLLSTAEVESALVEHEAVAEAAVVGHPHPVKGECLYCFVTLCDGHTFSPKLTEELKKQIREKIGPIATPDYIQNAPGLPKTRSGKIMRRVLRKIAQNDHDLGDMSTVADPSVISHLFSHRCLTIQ
UniProt O14639: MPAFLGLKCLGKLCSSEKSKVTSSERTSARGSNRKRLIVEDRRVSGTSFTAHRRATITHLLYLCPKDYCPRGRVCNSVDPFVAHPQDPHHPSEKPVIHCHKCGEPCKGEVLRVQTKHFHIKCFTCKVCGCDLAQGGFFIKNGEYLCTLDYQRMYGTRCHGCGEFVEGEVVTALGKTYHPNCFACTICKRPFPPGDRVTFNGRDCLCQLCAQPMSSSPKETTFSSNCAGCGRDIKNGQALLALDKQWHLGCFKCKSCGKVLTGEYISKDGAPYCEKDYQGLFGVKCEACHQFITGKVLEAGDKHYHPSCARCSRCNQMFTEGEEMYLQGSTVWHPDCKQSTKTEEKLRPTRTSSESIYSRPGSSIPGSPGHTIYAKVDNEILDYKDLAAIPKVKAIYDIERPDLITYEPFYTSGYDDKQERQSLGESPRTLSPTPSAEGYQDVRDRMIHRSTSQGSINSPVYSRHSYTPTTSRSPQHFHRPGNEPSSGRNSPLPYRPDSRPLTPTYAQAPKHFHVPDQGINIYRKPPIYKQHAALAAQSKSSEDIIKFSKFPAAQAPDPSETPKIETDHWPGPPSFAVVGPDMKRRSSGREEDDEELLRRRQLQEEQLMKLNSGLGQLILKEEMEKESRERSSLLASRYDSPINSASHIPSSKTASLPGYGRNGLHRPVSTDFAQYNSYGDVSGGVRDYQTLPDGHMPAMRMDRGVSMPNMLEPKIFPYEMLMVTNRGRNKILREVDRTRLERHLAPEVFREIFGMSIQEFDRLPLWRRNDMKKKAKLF
UniProt P24752: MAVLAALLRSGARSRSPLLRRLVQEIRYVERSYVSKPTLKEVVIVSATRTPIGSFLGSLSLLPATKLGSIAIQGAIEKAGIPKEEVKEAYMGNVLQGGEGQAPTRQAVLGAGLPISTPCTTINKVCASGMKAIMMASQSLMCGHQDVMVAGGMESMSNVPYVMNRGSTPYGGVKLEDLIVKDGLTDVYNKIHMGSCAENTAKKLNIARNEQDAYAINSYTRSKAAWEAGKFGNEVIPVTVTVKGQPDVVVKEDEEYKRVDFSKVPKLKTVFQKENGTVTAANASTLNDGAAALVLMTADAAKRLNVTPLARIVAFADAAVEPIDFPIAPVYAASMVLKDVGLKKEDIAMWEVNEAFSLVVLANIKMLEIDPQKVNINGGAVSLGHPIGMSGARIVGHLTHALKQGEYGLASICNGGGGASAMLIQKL
UniProt Q9H7C9: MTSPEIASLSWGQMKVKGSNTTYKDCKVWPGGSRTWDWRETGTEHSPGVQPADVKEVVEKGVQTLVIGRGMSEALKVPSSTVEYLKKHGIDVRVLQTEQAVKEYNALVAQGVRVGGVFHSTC
UniProt P53396: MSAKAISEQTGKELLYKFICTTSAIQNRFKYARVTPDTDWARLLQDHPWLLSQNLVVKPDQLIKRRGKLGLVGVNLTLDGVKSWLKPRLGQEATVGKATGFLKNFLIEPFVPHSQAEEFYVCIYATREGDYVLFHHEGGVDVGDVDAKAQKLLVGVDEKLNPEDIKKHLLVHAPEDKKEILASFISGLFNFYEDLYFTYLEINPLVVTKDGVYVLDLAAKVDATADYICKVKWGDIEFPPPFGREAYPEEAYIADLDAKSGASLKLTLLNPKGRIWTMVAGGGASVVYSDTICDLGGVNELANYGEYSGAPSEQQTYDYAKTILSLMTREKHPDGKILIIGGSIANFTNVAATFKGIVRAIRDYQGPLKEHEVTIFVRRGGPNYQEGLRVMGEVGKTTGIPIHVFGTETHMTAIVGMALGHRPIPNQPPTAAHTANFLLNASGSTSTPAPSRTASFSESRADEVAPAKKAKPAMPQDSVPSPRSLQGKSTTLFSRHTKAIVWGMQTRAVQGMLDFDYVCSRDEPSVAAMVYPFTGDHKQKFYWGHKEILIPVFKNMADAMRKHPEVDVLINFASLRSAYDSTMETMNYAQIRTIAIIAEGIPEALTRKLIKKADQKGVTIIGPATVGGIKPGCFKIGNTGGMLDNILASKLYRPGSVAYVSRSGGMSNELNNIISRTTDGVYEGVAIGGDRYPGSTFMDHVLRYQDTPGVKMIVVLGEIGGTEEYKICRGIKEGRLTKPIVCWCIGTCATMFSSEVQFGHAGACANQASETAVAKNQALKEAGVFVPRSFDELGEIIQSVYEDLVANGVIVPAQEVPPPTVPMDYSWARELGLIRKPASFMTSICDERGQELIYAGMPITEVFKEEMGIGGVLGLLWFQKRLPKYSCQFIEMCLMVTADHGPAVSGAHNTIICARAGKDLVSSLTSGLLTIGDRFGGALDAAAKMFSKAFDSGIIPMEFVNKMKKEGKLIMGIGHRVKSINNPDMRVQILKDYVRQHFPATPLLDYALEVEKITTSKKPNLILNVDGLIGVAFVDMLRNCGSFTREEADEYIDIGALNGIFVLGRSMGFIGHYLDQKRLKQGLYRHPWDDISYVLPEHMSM
UniProt Q8N2K0: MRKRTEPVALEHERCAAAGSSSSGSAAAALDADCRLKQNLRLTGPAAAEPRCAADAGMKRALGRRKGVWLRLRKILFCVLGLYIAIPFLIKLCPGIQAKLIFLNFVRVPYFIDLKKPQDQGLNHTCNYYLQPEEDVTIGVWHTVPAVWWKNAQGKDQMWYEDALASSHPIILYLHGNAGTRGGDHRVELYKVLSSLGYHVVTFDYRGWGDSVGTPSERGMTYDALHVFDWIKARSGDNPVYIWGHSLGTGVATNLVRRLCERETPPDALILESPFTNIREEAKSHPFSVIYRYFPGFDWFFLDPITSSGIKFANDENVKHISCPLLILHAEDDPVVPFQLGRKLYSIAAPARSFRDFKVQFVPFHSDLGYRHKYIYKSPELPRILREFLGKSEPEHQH
UniProt Q96EY9: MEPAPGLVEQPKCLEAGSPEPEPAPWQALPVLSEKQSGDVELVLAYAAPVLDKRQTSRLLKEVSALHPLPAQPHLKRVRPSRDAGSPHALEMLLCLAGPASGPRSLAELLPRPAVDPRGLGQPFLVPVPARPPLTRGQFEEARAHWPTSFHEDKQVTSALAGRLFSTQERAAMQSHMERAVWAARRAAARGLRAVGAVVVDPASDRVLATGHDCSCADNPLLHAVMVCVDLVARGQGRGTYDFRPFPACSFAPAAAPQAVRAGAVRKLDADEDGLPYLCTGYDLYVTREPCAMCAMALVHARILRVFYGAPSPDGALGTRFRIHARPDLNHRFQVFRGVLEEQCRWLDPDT
UniProt O75027: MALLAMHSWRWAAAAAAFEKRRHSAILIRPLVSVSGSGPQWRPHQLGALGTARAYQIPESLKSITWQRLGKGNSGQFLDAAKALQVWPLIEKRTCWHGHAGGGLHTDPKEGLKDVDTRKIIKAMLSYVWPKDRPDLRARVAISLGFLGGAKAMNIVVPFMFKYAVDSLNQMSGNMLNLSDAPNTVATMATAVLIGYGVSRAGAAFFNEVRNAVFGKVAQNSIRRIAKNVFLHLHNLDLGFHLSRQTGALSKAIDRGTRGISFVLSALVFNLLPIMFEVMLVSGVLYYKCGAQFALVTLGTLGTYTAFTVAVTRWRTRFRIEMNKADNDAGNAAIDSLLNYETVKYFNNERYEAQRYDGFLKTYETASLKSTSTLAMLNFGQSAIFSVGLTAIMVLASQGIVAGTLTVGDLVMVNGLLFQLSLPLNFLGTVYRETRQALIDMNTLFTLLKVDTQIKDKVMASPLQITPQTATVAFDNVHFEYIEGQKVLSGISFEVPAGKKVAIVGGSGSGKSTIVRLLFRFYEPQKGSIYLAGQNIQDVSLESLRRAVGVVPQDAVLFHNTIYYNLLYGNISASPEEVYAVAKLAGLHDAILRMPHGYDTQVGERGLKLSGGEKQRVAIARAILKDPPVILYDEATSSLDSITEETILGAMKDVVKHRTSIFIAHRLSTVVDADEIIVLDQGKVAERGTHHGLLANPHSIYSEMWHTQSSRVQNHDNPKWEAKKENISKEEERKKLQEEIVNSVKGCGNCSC
UniProt Q96IU4: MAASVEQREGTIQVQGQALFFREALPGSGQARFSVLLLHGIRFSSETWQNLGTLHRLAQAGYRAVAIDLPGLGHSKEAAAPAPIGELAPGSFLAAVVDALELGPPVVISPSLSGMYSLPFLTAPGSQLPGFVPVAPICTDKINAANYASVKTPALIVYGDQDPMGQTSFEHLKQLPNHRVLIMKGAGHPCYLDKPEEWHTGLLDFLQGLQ
UniProt Q9BWD1: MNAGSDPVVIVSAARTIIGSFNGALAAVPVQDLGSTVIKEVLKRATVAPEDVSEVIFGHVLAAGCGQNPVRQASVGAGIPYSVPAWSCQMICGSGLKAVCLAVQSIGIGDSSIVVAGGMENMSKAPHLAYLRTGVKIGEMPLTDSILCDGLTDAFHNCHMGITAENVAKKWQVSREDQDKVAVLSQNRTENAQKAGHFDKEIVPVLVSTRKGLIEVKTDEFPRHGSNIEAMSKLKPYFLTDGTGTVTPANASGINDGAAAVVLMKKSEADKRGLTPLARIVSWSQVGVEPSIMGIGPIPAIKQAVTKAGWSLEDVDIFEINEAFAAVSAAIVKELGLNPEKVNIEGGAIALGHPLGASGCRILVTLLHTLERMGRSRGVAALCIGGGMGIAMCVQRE
UniProt P78536: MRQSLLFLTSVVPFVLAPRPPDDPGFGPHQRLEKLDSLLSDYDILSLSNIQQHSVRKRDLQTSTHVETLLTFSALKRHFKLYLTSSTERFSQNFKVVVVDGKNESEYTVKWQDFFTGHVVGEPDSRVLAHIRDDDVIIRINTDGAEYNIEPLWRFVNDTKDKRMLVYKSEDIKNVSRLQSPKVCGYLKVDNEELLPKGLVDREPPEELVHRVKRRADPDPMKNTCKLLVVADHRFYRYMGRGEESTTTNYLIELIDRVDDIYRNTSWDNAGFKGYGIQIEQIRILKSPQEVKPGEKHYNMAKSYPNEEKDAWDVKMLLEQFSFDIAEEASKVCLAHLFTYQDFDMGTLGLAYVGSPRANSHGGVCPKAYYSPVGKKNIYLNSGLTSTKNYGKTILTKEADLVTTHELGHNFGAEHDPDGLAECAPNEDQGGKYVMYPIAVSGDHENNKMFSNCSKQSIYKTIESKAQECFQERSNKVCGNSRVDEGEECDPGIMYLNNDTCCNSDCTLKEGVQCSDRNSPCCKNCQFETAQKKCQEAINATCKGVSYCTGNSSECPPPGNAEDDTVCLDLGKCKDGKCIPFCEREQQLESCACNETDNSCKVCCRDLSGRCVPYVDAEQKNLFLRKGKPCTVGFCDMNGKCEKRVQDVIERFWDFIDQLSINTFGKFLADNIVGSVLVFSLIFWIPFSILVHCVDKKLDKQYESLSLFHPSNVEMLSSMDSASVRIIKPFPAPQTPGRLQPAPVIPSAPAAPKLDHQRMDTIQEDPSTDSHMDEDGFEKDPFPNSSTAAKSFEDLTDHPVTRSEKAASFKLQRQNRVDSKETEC

Columns and labels:
Experiment in all cases: log2 fold change, soluble protein after heating vs DMSO (PISA); higher = thermal stabilisation; K562 cells, 10 uM, 30 min; active = over 0.2 and 3.5 SD of the protein, either way, in both replicates (recomputed)
[1] = compound: CC[C@@H]1C(=O)N(C)c2cnc(Nc3ccc(C(=O)NC4CCN(C)CC4)cc3OC)nc2N1C1CCCC1
How it was run: (§1)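 K562 cells at 2×10^6 cells/mL were treated with 10 μM compound for 30 min. Aliquots were heated for 3 min across 48°C-58°C, pooled, and extracted in PBS with 0.5% NP-40 at 4°C; soluble protein was the supernatant after 21,000xg for 90 min. Soluble protein was quantified by TMTpro 16plex LC-MS/MS with channel sums equalised, and reported as log2 fold change in thermal stability against DMSO controls, with values from duplicates.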

volasertib = compound: CC[C@@H]1C(=O)N(C)c2cnc(Nc3ccc(C(=O)N[C@H]4CC[C@H](N5CCN(CC6CC6)CC5)CC4)cc3OC)nc2N1C(C)C [volasertib]
How it was run: as §1

[2] = compound: CC[C@H](C)N1C=C(C2=C(C=C(C=C21)C3=CN=C(C=C3)N4CCNCC4)C(=O)NCC5=C(C=C(NC5=O)C)C)C
How it was run: as §1

epoxomicin = compound: CC[C@H](C)[C@@H](C(=O)N[C@@H]([C@@H](C)O)C(=O)N[C@@H](CC(C)C)C(=O)[C@]1(CO1)C)NC(=O)[C@H]([C@@H](C)CC)N(C)C(=O)C [epoxomicin]
How it was run: as §1

[3] = compound: CCn1c(C(=O)N(C2CC2)C2CC2)cc2c3c(ncn3C)c(Nc3cc(C)n(C)n3)nc21
How it was run: as §1

[4] = compound: CCn1cc(-c2ccnc3[nH]c(-c4cccc(CN(C)C)c4)cc23)c(-c2ccc(NC(=O)N(C)C)cc2)n1
How it was run: as §1

[5] = compound: CN(C)CC(=O)Nc1ccc2[nH]c(=O)c3ccccc3c2c1
How it was run: as §1

rosiglitazone = compound: CN(CCOC1=CC=C(C=C1)C[C@H]2C(=O)NC(=O)S2)C3=CC=CC=N3 (racemic) [rosiglitazone]
How it was run: as §1

[6] = compound: CN1C2=C(C3=C1C(=O)N(N=C3)CC4=CC(=CC=C4)N)SC(=C2)S(=O)C
How it was run: as §1

[7] = compound: CN1CCC(CNc2ccc3ncc(-c4cccc(OC(F)(F)F)c4)n3n2)CC1
How it was run: as §1

saracatinib = compound: CN1CCN(CCOc2cc(OC3CCOCC3)c3c(Nc4c(Cl)ccc5c4OCO5)ncnc3c2)CC1 [saracatinib]
How it was run: as §1

sotrastaurin = compound: CN1CCN(c2nc(C3=C(c4c[nH]c5ccccc45)C(=O)NC3=O)c3ccccc3n2)CC1 [sotrastaurin]
How it was run: as §1

alvocidib = compound: CN1CC[C@H](c2c(O)cc(O)c3c(=O)cc(-c4ccccc4Cl)oc23)[C@H](O)C1 [alvocidib]
How it was run: as §1

Tubastatin A = compound: CN1CCc2c(c3ccccc3n2Cc2ccc(C(=O)NO)cc2)C1 [Tubastatin A]
How it was run: as §1

[8] = compound: CNC(=O)C1=CC=CC=C1NC2=NC(=NC=C2Cl)NC3=C(C=C(C=C3)N4CCOCC4)OC
How it was run: as §1

defactinib = compound: CNC(=O)c1ccc(Nc2ncc(C(F)(F)F)c(NCc3nccnc3N(C)S(C)(=O)=O)n2)cc1 [defactinib]
How it was run: as §1

rucaparib = compound: CNCc1ccc(-c2[nH]c3cc(F)cc4c3c2CCNC4=O)cc1 [rucaparib]
How it was run: as §1

[9] = compound: CNc1nc(-c2ccc3c(N)n[nH]c3c2)cc(N2C[C@@H](C(=O)NC3CCCCC3)CC[C@H]2C)n1
How it was run: as §1

encorafenib = compound: COC(=O)N[C@@H](C)CNc1nccc(-c2cn(C(C)C)nc2-c2cc(Cl)cc(NS(C)(=O)=O)c2F)n1 [encorafenib]
How it was run: as §1

[10] = compound: COC(=O)[C@H](CCSC)NC(=O)C1=C(C=C(C=C1)NC[C@H](CS)N)C2=CC=CC=C2
How it was run: as §1

Measured: log2 fold change

ACSS2 isoform 2 (UniProt Q9NR19)
inactive: [1] -0.015 | volasertib -0.048 | [2] 0.025 | epoxomicin 0.073 | [3] -0.007 | [4] -0.089 | [5] 0.016 | rosiglitazone 0.017 | [6] -0.016 | [7] -0.123 | saracatinib 0.016 | sotrastaurin 0.006 | alvocidib -0.073 | Tubastatin A -0.025 | [8] 0.026 | defactinib -0.08 | rucaparib -0.042 | [9] -0.003 | encorafenib 0.031 | [10] 0.013

ABLIM1 (UniProt O14639)
inactive: [1] 0 | volasertib -0.079 | [2] -0.009 | epoxomicin 0.012 | [3] -0.098 | [4] 0.048 | [5] 0.144 | rosiglitazone -0.057 | [6] 0.449 | [7] -0.108 | saracatinib -0.17 | sotrastaurin -0.089 | alvocidib -0.009 | Tubastatin A 0.137 | [8] 0.011 | defactinib -0.105 | rucaparib -0.045 | [9] 0.37 | encorafenib -0.059 | [10] -0.011

ACAT1 (UniProt P24752)
inactive: [1] 0.083 | volasertib 0.087 | [2] -0.002 | epoxomicin 0.051 | [3] -0.021 | [4] 0.005 | [5] -0.044 | rosiglitazone -0.01 | [6] -0.022 | [7] 0.064 | saracatinib 0.016 | sotrastaurin -0.016 | alvocidib -0.017 | Tubastatin A 0.003 | [8] -0.037 | defactinib 0.002 | rucaparib -0.052 | [9] -0.074 | encorafenib -0.011 | [10] 0.06

AAMDC (UniProt Q9H7C9)
inactive: [1] 0.081 | volasertib 0.011 | [2] 0.012 | epoxomicin 0.107 | [3] 0.073 | [4] -0.027 | [5] 0.04 | rosiglitazone 0.012 | [6] -0.124 | [7] 0.005 | saracatinib 0.034 | sotrastaurin 0.026 | alvocidib -0.033 | Tubastatin A 0.032 | [8] 0.009 | defactinib 0 | rucaparib -0.056 | [9] -0.007 | encorafenib 0.004 | [10] -0.007

ACLY (UniProt P53396)
inactive: [1] -0.023 | volasertib -0.124 | [2] 0.02 | epoxomicin 0.001 | [3] 0.021 | [4] 0.006 | [5] -0.003 | rosiglitazone -0.057 | [6] -0.064 | [7] -0.116 | saracatinib 0.018 | sotrastaurin 0.036 | alvocidib -0.035 | Tubastatin A -0.016 | [8] -0.006 | defactinib -0.01 | rucaparib -0.019 | [9] -0.035 | encorafenib -0.001 | [10] -0.004

ACTA1 (UniProt P68133)
inactive: [1] -0.023 | volasertib -0.032 | [2] -0.04 | epoxomicin -0.001 | [3] 0.007 | [4] 0.027 | [5] -0.014 | rosiglitazone -0.01 | [6] -0.05 | [7] 0.059 | saracatinib 0.048 | sotrastaurin 0.031 | alvocidib 0.011 | Tubastatin A -0.036 | [8] -0.027 | defactinib 0 | rucaparib -0.02 | [9] -0.065 | encorafenib -0.02 | [10] 0.035

ABHD12 isoform 2 (UniProt Q8N2K0)
inactive: [1] 0.008 | volasertib -0.033 | [2] 0.006 | epoxomicin -0.007 | [3] 0.039 | [4] 0.051 | [5] -0.016 | rosiglitazone 0.025 | [6] 0.023 | [7] 0.006 | saracatinib -0.067 | sotrastaurin -0.013 | alvocidib -0.063 | Tubastatin A 0.032 | [8] 0.014 | defactinib 0.021 | rucaparib 0.06 | [9] 0.004 | encorafenib 0.066 | [10] -0.001

ADAT3 (UniProt Q96EY9)
inactive: [1] -0.011 | volasertib 0.014 | [2] 0.047 | epoxomicin -0.026 | [3] -0.021 | [4] -0.102 | [5] -0.059 | rosiglitazone 0.04 | [6] -0.147 | [7] 0.088 | saracatinib 0.063 | sotrastaurin 0.122 | alvocidib -0.047 | Tubastatin A -0.005 | [8] -0.05 | defactinib 0.008 | rucaparib 0.021 | [9] 0.046 | encorafenib -0.043 | [10] 0.007

ACACA isoform 4 (UniProt Q13085)
inactive: [1] 0.101 | volasertib -0.373 | [2] 0.067 | epoxomicin -0.092 | [3] -0.092 | [4] 0.058 | [5] 0.073 | rosiglitazone 0.118 | [6] 0.285 | [7] 0.04 | saracatinib -0.192 | sotrastaurin -0.2 | alvocidib 0.072 | Tubastatin A 0.112 | [8] -0.021 | defactinib -0.029 | rucaparib 0.381 | [9] 0.137 | encorafenib 0.205 | [10] -0.115

ABRAXAS2 (UniProt Q15018)
inactive: [1] 0.021 | volasertib 0.064 | [2] 0.002 | epoxomicin -0.024 | [3] -0.014 | [4] -0.038 | [5] 0.005 | rosiglitazone 0.01 | [6] -0.036 | [7] -0.015 | saracatinib 0.018 | sotrastaurin 0.051 | alvocidib -0.058 | Tubastatin A -0.116 | [8] -0.041 | defactinib -0.015 | rucaparib -0.022 | [9] -0.022 | encorafenib -0.012 | [10] 0.024

Looked up one by one from above (2):
ABRAXAS2 (UniProt Q15018)
inactive: [1] 0.021 | volasertib 0.064 | [2] 0.002 | epoxomicin -0.024 | [3] -0.014 | [4] -0.038 | [5] 0.005 | rosiglitazone 0.01 | [6] -0.036 | [7] -0.015 | saracatinib 0.018 | sotrastaurin 0.051 | alvocidib -0.058 | Tubastatin A -0.116 | [8] -0.041 | defactinib -0.015 | rucaparib -0.022 | [9] -0.022 | encorafenib -0.012 | [10] 0.024

ABHD12 isoform 2 (UniProt Q8N2K0)
inactive: [1] 0.008 | volasertib -0.033 | [2] 0.006 | epoxomicin -0.007 | [3] 0.039 | [4] 0.051 | [5] -0.016 | rosiglitazone 0.025 | [6] 0.023 | [7] 0.006 | saracatinib -0.067 | sotrastaurin -0.013 | alvocidib -0.063 | Tubastatin A 0.032 | [8] 0.014 | defactinib 0.021 | rucaparib 0.06 | [9] 0.004 | encorafenib 0.066 | [10] -0.001

Additional records.

ABCB7 isoform 2 (UniProt O75027)
inactive: [1] -0.075 | volasertib -0.117 | [2] 0.029 | epoxomicin -0.003 | [3] -0.005 | [4] -0.024 | [5] 0.01 | rosiglitazone 0.056 | [6] -0.044 | [7] -0.052 | saracatinib 0.038 | sotrastaurin 0.047 | alvocidib -0.076 | Tubastatin A 0.014 | [8] -0.002 | defactinib -0.05 | rucaparib -0.03 | [9] -0.015 | encorafenib 0.017 | [10] -0.009

ABCB8 (UniProt Q9NUT2)
inactive: [1] 0.015 | volasertib -0.068 | [2] 0.033 | epoxomicin 0.089 | [3] -0.047 | [4] 0.011 | [5] 0.013 | rosiglitazone 0 | [6] -0.05 | [7] -0.069 | saracatinib -0.017 | sotrastaurin 0.003 | alvocidib -0.046 | Tubastatin A -0.062 | [8] -0.033 | defactinib -0.024 | rucaparib -0.025 | [9] 0.064 | encorafenib 0.04 | [10] -0.028

ABHD14B (UniProt Q96IU4)
inactive: [1] -0.03 | volasertib -0.024 | [2] 0.018 | epoxomicin 0.027 | [3] 0.017 | [4] -0.029 | [5] 0.094 | rosiglitazone 0.005 | [6] -0.056 | [7] 0.061 | saracatinib 0.044 | sotrastaurin -0.013 | alvocidib -0.106 | Tubastatin A -0.013 | [8] 0.045 | defactinib -0.047 | rucaparib -0.073 | [9] -0.017 | encorafenib -0.005 | [10] 0.046

ACADSB (UniProt P45954)
inactive: [1] 0.04 | volasertib -0.013 | [2] 0.029 | epoxomicin 0.02 | [3] 0.015 | [4] -0.103 | [5] 0.027 | rosiglitazone 0.078 | [6] -0.101 | [7] -0.071 | saracatinib -0.019 | sotrastaurin 0.084 | alvocidib -0.066 | Tubastatin A 0.071 | [8] 0.008 | defactinib -0.048 | rucaparib -0.041 | [9] 0.057 | encorafenib -0.019 | [10] 0.009

ACAT2 (UniProt Q9BWD1)
inactive: [1] -0.019 | volasertib 0.02 | [2] -0.031 | epoxomicin 0.003 | [3] -0.035 | [4] -0.003 | [5] -0.032 | rosiglitazone 0.008 | [6] -0.041 | [7] 0.006 | saracatinib -0.013 | sotrastaurin 0.053 | alvocidib -0.039 | Tubastatin A -0.034 | [8] -0.018 | defactinib -0.02 | rucaparib -0.052 | [9] -0.016 | encorafenib -0.016 | [10] -0.016

ADAM17 (UniProt P78536)
inactive: [1] 0.033 | volasertib -0.002 | [2] 0.051 | epoxomicin -0.004 | [3] 0.006 | [4] 0.039 | [5] -0.041 | rosiglitazone -0.006 | [6] 0.015 | [7] 0.113 | saracatinib 0.012 | sotrastaurin 0.021 | alvocidib -0.03 | Tubastatin A 0.022 | [8] -0.019 | defactinib 0.038 | rucaparib 0.066 | [9] -0.083 | encorafenib 0.055 | [10] 0.03
